Test results as given in paper PMC6933005.
Results are given in words; binding and its absence hold for the method and conditions named. Binding seen in cells or lysates may run through a third protein. Some binding calls cover weakened binding; strength is not graded here.

Chains of the proteins cited; added tags and fusions are not shown.
UniProt Q59KY8: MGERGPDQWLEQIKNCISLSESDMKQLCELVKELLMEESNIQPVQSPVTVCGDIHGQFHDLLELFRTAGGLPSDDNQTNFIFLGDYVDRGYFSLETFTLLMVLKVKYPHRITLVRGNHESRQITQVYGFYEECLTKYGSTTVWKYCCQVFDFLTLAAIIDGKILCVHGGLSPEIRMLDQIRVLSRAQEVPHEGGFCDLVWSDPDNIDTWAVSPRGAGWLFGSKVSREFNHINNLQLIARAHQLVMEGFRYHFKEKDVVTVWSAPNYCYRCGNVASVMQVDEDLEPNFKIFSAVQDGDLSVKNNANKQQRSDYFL

Key:
[1] = target: CaSap190 (orf19.5160) tagged with GFP at the C-terminus (Sap190-GFP) (C. albicans); assay: co-IP; anti-GFP conjugated beads used for pull-down from log-phase C. albicans yeast cell lysates; pull-down products probed with anti-GFP or anti-Flag in Western blot; repeated 3 times
[2] = target: CaSap155 (orf19.642) tagged with GFP at the C-terminus (Sap155-GFP) (C. albicans) (UniProt Q59QN2); assay: as above

Substance	binding [1]	binding [2]
CaSap155 (orf19.642) tagged with Flag at the C-terminus (Sap155-Flag) (from UniProt Q59QN2 1-924)	no binding	
CaSit4 tagged with Flag at the C-terminus (Sit4-Flag) (from UniProt Q59KY8 1-314) (enzyme)	binds	binds
